Measurements taken from publication PMC7077331.
Results are given in words; binding and its absence hold for the method and conditions named. Binding calls can cover weak binding; strength is not graded here. Sequences can lack the tags named with a protein. For some assays here: Binding seen in cells or lysates may run through a third protein.

How the values were obtained:
[1] = molecular target: T1, 3xFlag-tagged full-length hOAS1 p44 isoform (p3xFlag-CMV-OAS1-p44) (human) (UniProt P00973); assay: co-IP; A549 cells transiently transfected with p3xFlag-CMV-OAS1-p44, lysed at 48 h (1% Triton X-100, 0.1% SDS, 150 mM NaCl, 50 mM Tris-HCl); anti-Flag agarose overnight at 4 °C; IgG beads as control; blots with anti-SVIL and anti-Flag
T1 sequence: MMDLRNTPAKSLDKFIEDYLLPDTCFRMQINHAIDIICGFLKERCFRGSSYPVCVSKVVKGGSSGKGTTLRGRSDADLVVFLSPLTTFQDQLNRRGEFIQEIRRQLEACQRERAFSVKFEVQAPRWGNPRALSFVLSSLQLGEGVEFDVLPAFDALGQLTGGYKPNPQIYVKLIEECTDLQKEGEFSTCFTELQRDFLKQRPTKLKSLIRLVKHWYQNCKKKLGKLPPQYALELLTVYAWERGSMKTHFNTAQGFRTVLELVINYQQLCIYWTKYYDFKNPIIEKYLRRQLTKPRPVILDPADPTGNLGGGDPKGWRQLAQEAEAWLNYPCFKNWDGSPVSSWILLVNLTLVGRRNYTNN

[2] = molecular target: T2, full length hOAS1-p44 isoform fused to the GAL4-BD domain (pGBKT7) (human) (UniProt P00973); assay: two-hybrid; Matchmaker Gold library screen: GAL4-BD bait in Y2HGold mated at 30 °C for 24 h with Y187 holding a universal human cDNA library fused to GAL4-AD; selection on DDO, then TDO/A and QDO/A; inserts of colonies from QDO/A plates sequenced; about 2 x 10^6 clones screened
T2 sequence: T1 sequence

Substance | binding [1] | binding [2]
endogenous full-length Supervillin (SVIL) (from UniProt O95425-2) | binds | 
Supervillin (SVIL) 178 aa prey peptide (aa 1615-1792), GAL4-AD fusion (human) (domain or fragment) |  | binds
